Source: publication PMC7694386

Chains of the proteins cited; added tags and fusions are not shown.
UniProt O95817: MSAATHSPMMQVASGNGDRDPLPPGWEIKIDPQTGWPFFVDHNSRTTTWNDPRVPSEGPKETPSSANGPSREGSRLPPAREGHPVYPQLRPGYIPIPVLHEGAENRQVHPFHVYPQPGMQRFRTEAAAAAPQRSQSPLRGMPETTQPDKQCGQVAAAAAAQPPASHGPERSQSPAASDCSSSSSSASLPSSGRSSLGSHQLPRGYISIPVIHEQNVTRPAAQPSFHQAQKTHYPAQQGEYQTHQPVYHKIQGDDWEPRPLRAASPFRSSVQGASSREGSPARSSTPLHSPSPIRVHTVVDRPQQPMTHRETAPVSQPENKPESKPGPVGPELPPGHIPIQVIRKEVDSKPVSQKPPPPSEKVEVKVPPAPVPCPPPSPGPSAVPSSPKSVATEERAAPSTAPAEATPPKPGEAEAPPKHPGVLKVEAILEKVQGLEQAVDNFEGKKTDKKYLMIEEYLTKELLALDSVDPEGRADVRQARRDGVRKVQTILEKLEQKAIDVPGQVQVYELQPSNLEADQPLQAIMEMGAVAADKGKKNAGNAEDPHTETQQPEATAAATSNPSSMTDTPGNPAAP

target: BAG3 (BCL-2-associated athanogene 3) (human (endogenous in HEK293T)) (UniProt O95817); assay: affinity purification with mass spectrometry; endogenous BAG3 immunoprecipitated with anti-BAG3 antibody and Protein A/G magnetic beads from HEK293T lysate; cells treated with DMSO (basal) or 10 µM MG132 for 6 h; IgG IP (MG132_IgG) as control; label-free quantification, three biological replicates

Binder | binding
GAPVD1 (protein, UniProt Q14C86 1-1478) MVKLDIHTLAHHLKQERLYVNSEKQLIQRLNADVLKTAEKLYRTAWIAKQQRINLDRLIITSAEASPAECCQHAKILEDTQFVDGYKQLGFQETAYGEFLSRLRENPRLIASSLVAGEKLNQENTQSVIYTVFTSLYGNCIMQEDESYLLQVLRYLIEFELKESDNPRRLLRRGTCAFSILFKLFSEGLFSAKLFLTATLHEPIMQLLVEDEDHLETDPNKLIERFSPSQQEKLFGEKGSDRFRQKVQEMVESNEAKLVALVNKFIGYLKQNTYCFPHSLRWIVSQMYKTLSCVDRLEVGEVRAMCTDLLLACFICPAVVNPEQYGIISDAPINEVARFNLMQVGRLLQQLAMTGSEEGDPRTKSSLGKFDKSCVAAFLDVVIGGRAVETPPLSSVNLLEGLSRTVVYITYSQLITLVNFMKSVMSGDQLREDRMALDNLLANLPPAKPGKSSSLEMTPYNTPQLSPATTPANKKNRLPIATRSRSRTNMLMDLHMDHEGSSQETIQEVQPEEVLVISLGTGPQLTPGMMSENEVLNMQLSDGGQGDVPVDENKLHGKPDKTLRFSLCSDNLEGISEGPSNRSNSVSSLDLEGESVSELGAGPSGSNGVEALQLLEHEQATTQDNLDDKLRKFEIRDMMGLTDDRDISETVSETWSTDVLGSDFDPNIDEDRLQEIAGAAAENMLGSLLCLPGSGSVLLDPCTGSTISETTSEAWSVEVLPSDSEAPDLKQEERLQELESCSGLGSTSDDTDVREVSSRPSTPGLSVVSGISATSEDIPNKIEDLRSECSSDFGGKDSVTSPDMDEITHGAHQLTSPPSQSESLLAMFDPLSSHEGASAVVRPKVHYARPSHPPPDPPILEGAVGGNEARLPNFGSHVLTPAEMEAFKQRHSYPERLVRSRSSDIVSSVRRPMSDPSWNRRPGNEERELPPAAAIGATSLVAAPHSSSSSPSKDSSRGETEERKDSDDEKSDRNRPWWRKRFVSAMPKAPIPFRKKEKQEKDKDDLGPDRFSTLTDDPSPRLSAQAQVAEDILDKYRNAIKRTSPSDGAMANYESTGDNHDRDLSSKLLYHSDKEVMGDGESAHDSPRDEALQNISADDLPDSASQAAHPQDSAFSYRDAKKKLRLALCSADSVAFPVLTHSTRNGLPDHTDPEDNEIVCFLKVQIAEAINLQDKNLMAQLQETMRCVCRFDNRTCRKLLASIAEDYRKRAPYIAYLTRCRQGLQTTQAHLERLLQRVLRDKEVANRYFTTVCVRLLLESKEKKIREFIQDFQKLTAADDKTAQVEDFLQFLYGAMAQDVIWQNASEEQLQDAQLAIERSVMNRIFKLAFYPNQDGDILRDQVLHEHIQRLSKVVTANHRALQIPEVYLREAPWPSAQSEIRTISAYKTPRDKVQCILRMCSTIMNLLSLANEDSVPGADDFVPVLVFVLIKANPPCLLSTVQYISSFYASCLSGEESYWWMQFTAAVEFIKTIDDRK | binds
Histone deacetylase complex subunit SAP130 (protein, UniProt Q9H0E3 1-1048) MGPPRHPQAGEIEAGGAGGGRRLQVEMSSQQFPRLGAPSTGLSQAPSQIANSGSAGLINPAATVNDESGRDSEVSAREHMSSSSSLQSREEKQEPVVVRPYPQVQMLSTHHAVASATPVAVTAPPAHLTPAVPLSFSEGLMKPPPKPTMPSRPIAPAPPSTLSLPPKVPGQVTVTMESSIPQASAIPVATISGQQGHPSNLHHIMTTNVQMSIIRSNAPGPPLHIGASHLPRGAAAAAVMSSSKVTTVLRPTSQLPNAATAQPAVQHIIHQPIQSRPPVTTSNAIPPAVVATVSATRAQSPVITTTAAHATDSALSRPTLSIQHPPSAAISIQRPAQSRDVTTRITLPSHPALGTPKQQLHTMAQKTIFSTGTPVAAATVAPILATNTIPSATTAGSVSHTQAPTSTIVTMTVPSHSSHATAVTTSNIPVAKVVPQQITHTSPRIQPDYPAERSSLIPISGHRASPNPVAMETRSDNRPSVPVQFQYFLPTYPPSAYPLAAHTYTPITSSVSTIRQYPVSAQAPNSAITAQTGVGVASTVHLNPMQLMTVDASHARHIQGIQPAPISTQGIQPAPIGTPGIQPAPLGTQGIHSATPINTQGLQPAPMGTQQPQPEGKTSAVVLADGATIVANPISNPFSAAPAATTVVQTHSQSASTNAPAQGSSPRPSILRKKPATDGAKPKSEIHVSMATPVTVSMETVSNQNNDQPTIAVPPTAQQPPPTIPTMIAAASPPSQPAVALSTIPGAVPITPPITTIAAAPPPSVTVGGSLSSVLGPPVPEIKVKEEVEPMDIMRPVSAVPPLATNTVSPSLALLANNLSMPTSDLPPGASPRKKPRKQQHVISTEEGDMMETNSTDDEKSTAKSLLVKAEKRKSPPKEYIDEEGVRYVPVRPRPPITLLRHYRNPWKAAYHHFQRYSDVRVKEEKKAMLQEIANQKGVSCRAQGWKVHLCAAQLLQLTNLEHDVYERLTNLQEGIIPKKKAATDDDLHRINELIQGNMQRCKLVMDQISEARDSMLKVLDHKDRVLKLLNKNGTVKKVSKLKRKEKV | binds
DKC1 (protein, UniProt O60832 1-514) MADAEVIILPKKHKKKKERKSLPEEDVAEIQHAEEFLIKPESKVAKLDTSQWPLLLKNFDKLNVRTTHYTPLACGSNPLKREIGDYIRTGFINLDKPSNPSSHEVVAWIRRILRVEKTGHSGTLDPKVTGCLIVCIERATRLVKSQQSAGKEYVGIVRLHNAIEGGTQLSRALETLTGALFQRPPLIAAVKRQLRVRTIYESKMIEYDPERRLGIFWVSCEAGTYIRTLCVHLGLLLGVGGQMQELRRVRSGVMSEKDHMVTMHDVLDAQWLYDNHKDESYLRRVVYPLEKLLTSHKRLVMKDSAVNAICYGAKIMLPGVLRYEDGIEVNQEIVVITTKGEAICMAIALMTTAVISTCDHGIVAKIKRVIMERDTYPRKWGLGPKASQKKLMIKQGLLDKHGKPTDSTPATWKQEYVDYSESAKKEVVAEVVKAPQVVAEAAKTAKRKRESESESDETPPAAPQLIKKEKKKSKKDKKAKAGLESGAEPGDGDSDTTKKKKKKKKAKEVELVSE | binds

The remaining lines, values ahead:

binding | Binder
binds | TSC1 (hamartin) (protein, UniProt Q92574 1-1164) MAQQANVGELLAMLDSPMLGVRDDVTAVFKENLNSDRGPMLVNTLVDYYLETSSQPALHILTTLQEPHDKHLLDRINEYVGKAATRLSILSLLGHVIRLQPSWKHKLSQAPLLPSLLKCLKMDTDVVVLTTGVLVLITMLPMIPQSGKQHLLDFFDIFGRLSSWCLKKPGHVAEVYLVHLHASVYALFHRLYGMYPCNFVSFLRSHYSMKENLETFEEVVKPMMEHVRIHPELVTGSKDHELDPRRWKRLETHDVVIECAKISLDPTEASYEDGYSVSHQISARFPHRSADVTTSPYADTQNSYGCATSTPYSTSRLMLLNMPGQLPQTLSSPSTRLITEPPQATLWSPSMVCGMTTPPTSPGNVPPDLSHPYSKVFGTTAGGKGTPLGTPATSPPPAPLCHSDDYVHISLPQATVTPPRKEERMDSARPCLHRQHHLLNDRGSEEPPGSKGSVTLSDLPGFLGDLASEEDSIEKDKEEAAISRELSEITTAEAEPVVPRGGFDSPFYRDSLPGSQRKTHSAASSSQGASVNPEPLHSSLDKLGPDTPKQAFTPIDLPCGSADESPAGDRECQTSLETSIFTPSPCKIPPPTRVGFGSGQPPPYDHLFEVALPKTAHHFVIRKTEELLKKAKGNTEEDGVPSTSPMEVLDRLIQQGADAHSKELNKLPLPSKSVDWTHFGGSPPSDEIRTLRDQLLLLHNQLLYERFKRQQHALRNRRLLRKVIKAAALEEHNAAMKDQLKLQEKDIQMWKVSLQKEQARYNQLQEQRDTMVTKLHSQIRQLQHDREEFYNQSQELQTKLEDCRNMIAELRIELKKANNKVCHTELLLSQVSQKLSNSESVQQQMEFLNRQLLVLGEVNELYLEQLQNKHSDTTKEVEMMKAAYRKELEKNRSHVLQQTQRLDTSQKRILELESHLAKKDHLLLEQKKYLEDVKLQARGQLQAAESRYEAQKRITQVFELEILDLYGRLEKDGLLKKLEEEKAEAAEAAEERLDCCNDGCSDSMVGHNEEASGHNGETKTPRPSSARGSSGSRGGGGSSSSSSELSTPEKPPHQRAGPFSSRWETTMGEASASIPTTVGSLPSSKSFLGMKARELFRNKSESQCDEDGMTSSLSESLKTELGKDLGVEAKIPLNLDGPHPSPPTPDSVGQLHIMDYNETHHEHS
binds | splicing factor RBM22 (protein, UniProt Q9NW64 1-420) MATSLGSNTYNRQNWEDADFPILCQTCLGENPYIRMTKEKYGKECKICARPFTVFRWCPGVRMRFKKTEVCQTCSKLKNVCQTCLLDLEYGLPIQVRDAGLSFKDDMPKSDVNKEYYTQNMEREISNSDGTRPVGMLGKATSTSDMLLKLARTTPYYKRNRPHICSFWVKGECKRGEECPYRHEKPTDPDDPLADQNIKDRYYGINDPVADKLLKRASTMPRLDPPEDKTITTLYVGGLGDTITETDLRNHFYQFGEIRTITVVQRQQCAFIQFATRQAAEVAAEKSFNKLIVNGRRLNVKWGRSQAARGKEKEKDGTTDSGIKLEPVPGLPGALPPPPAAEEEASANYFNLPPSGPPAVVNIALPPPPGIAPPPPPGFGPHMFHPMGPPPPFMRAPGPIHYPSQDPQRMGAHAGKHSSP
binds | VARS (protein, UniProt P26640 1-1264) MSTLYVSPHPDAFPSLRALIAARYGEAGEGPGWGGAHPRICLQPPPTSRTPFPPPRLPALEQGPGGLWVWGATAVAQLLWPAGLGGPGGSRAAVLVQQWVSYADTELIPAACGATLPALGLRSSAQDPQAVLGALGRALSPLEEWLRLHTYLAGEAPTLADLAAVTALLLPFRYVLDPPARRIWNNVTRWFVTCVRQPEFRAVLGEVVLYSGARPLSHQPGPEAPALPKTAAQLKKEAKKREKLEKFQQKQKIQQQQPPPGEKKPKPEKREKRDPGVITYDLPTPPGEKKDVSGPMPDSYSPRYVEAAWYPWWEQQGFFKPEYGRPNVSAANPRGVFMMCIPPPNVTGSLHLGHALTNAIQDSLTRWHRMRGETTLWNPGCDHAGIATQVVVEKKLWREQGLSRHQLGREAFLQEVWKWKEEKGDRIYHQLKKLGSSLDWDRACFTMDPKLSAAVTEAFVRLHEEGIIYRSTRLVNWSCTLNSAISDIEVDKKELTGRTLLSVPGYKEKVEFGVLVSFAYKVQGSDSDEEVVVATTRIETMLGDVAVAVHPKDTRYQHLKGKNVIHPFLSRSLPIVFDEFVDMDFGTGAVKITPAHDQNDYEVGQRHGLEAISIMDSRGALINVPPPFLGLPRFEARKAVLVALKERGLFRGIEDNPMVVPLCNRSKDVVEPLLRPQWYVRCGEMAQAASAAVTRGDLRILPEAHQRTWHAWMDNIREWCISRQLWWGHRIPAYFVTVSDPAVPPGEDPDGRYWVSGRNEAEAREKAAKEFGVSPDKISLQQDEDVLDTWFSSGLFPLSILGWPNQSEDLSVFYPGTLLETGHDILFFWVARMVMLGLKLTGRLPFREVYLHAIVRDAHGRKMSKSLGNVIDPLDVIYGISLQGLHNQLLNSNLDPSEVEKAKEGQKADFPAGIPECGTDALRFGLCAYMSQGRDINLDVNRILGYRHFCNKLWNATKFALRGLGKGFVPSPTSQPGGHESLVDRWIRSRLTEAVRLSNQGFQAYDFPAVTTAQYSFWLYELCDVYLECLKPVLNGVDQVAAECARQTLYTCLDVGLRLLSPFMPFVTEELFQRLPRRMPQAPPSLCVTPYPEPSECSWKDPEAEAALELALSITRAVRSLRADYNLTRIRPDCFLEVADEATGALASAVSGYVQALASAGVVAVLALGAPAPQGCAVALASDRCSIHLQLQGLVDPARELGKLQAKRVEAQRQAQRLRERRAASGYPVKVPLEVQEADEAKLQQTEAELRKVDEAIALFQKML

These are yes or no findings as the source states them, for the method shown. In cells and extracts the contact can be indirect. Here binding means that the protein was enriched with, or labelled near, the bait; the list need not be complete. Tags and fused reporters may be left off the sequences shown.
